# At least one structure is not confirmed: it was looked up by name or label, or the drawing left a doubt.
# Experiments:
# Format in all cases: cell-based, human
# PC3 cells [1] = test: Ribosome profiling and RNA-seq of PC3 cells (translational efficiency, mRNA abundance); conditions: 3-hr rapamycin treatment;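 note: mRNA is RNA-seq average read density per codon over the coding sequence, translational efficiency is ribosome footprint over RNA-seq density, scaled so the median gene equals 1.0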
# [2] = system: MDA-MB-361, SKOV3 and ACHN cells; test: Western blot and qPCR of 4-gene invasion signature in metastatic cell lines; conditions: MDA-MB-361, SKOV3, ACHN cells, 48-hour treatment, 200 nM
# Experimental: Western blot analysis was performed as previously described (Hsieh et al., Cancer Cell 17:249-261 (2010)) with antibodies specific to phospho-AKT^S473 (Cell Signaling), AKT (Cell Signaling), phospho-p70S6K^T389 (Cell Signaling), phospho-rpS6^S240/244 (Cell Signaling), rpS6 (Cell Signaling), phospho-4EBP1^T37/46 (Cell Signaling), 4EBP1 (Cell Signaling), 4EBP2 (Cell Signaling), YB1 (Cell Signaling), CD44 (Cell Signaling), LEF1 (Cell Signaling), PTEN (Cell Signaling), eEF2 (Cell Signaling), GAPDH (Cell Signaling), vimentin (BD Biosciences), eIF4E (BD Biosciences), Flag (Sigma), β-actin (Sigma), MTA1 (Santa Cruz Biotechnology), Twist (Santa Cruz Biotechnology), rpL28 (Santa Cruz Biotechnology), HA (Covance) and rictor (Bethyl Laboratory).
# RNA was isolated using the manufacturer's protocol for RNA extraction with TRIzol Reagent (Invitrogen) using the Pure Link RNA mini kit (Invitrogen). RNA was DNase-treated with Pure Link Dnase (Invitrogen). DNase-treated RNA was transcribed to cDNA with SuperScript III First-Strand Synthesis System for RT-PCR (Invitrogen), and 1 μl of cDNA was used to run a SYBR green detection qPCR assay (SYBR Green Supermix and MyiQ2, Biorad). Primers were used at 200 nM.
# PC3 cells [3] = test: Matrigel invasion assay; conditions: 6-hr pre-treatment followed by 6 hr of cell invasion
# Description: BioCoat Matrigel Invasion Chambers (modified Boyden Chamber Assay; BD Biosciences) were used according to the manufacturer's instructions.
smiles,measurement,setting,value
CO[C@H]1C[C@@H]2CC[C@@H](C)[C@@](O)(O2)C(=O)C(=O)N2CCCC[C@H]2C(=O)O[C@H]([C@H](C)C[C@@H]2CC[C@@H](O)[C@H](OC)C2)CC(=O)[C@H](C)/C=C(\C)[C@@H](O)[C@@H](OC)C(=O)[C@H](C)C[C@H](C)/C=C/C=C/C=C/1C [rapamycin],gene expression (ribosome profiling),PC3 cells [1],did not markedly affect
same,4-gene invasion signature response in metastatic cell lines,[2],but not
same,invasive potential of PC3 prostate cancer cells,PC3 cells [3],but not
